Experimental data taken from the supplement of paper PMC10849652.
The other results are listed elsewhere or left out.

By UniProt entry, the sequences of proteins in these tests, tags left out. Where a name states a change or a piece, a line headed by the entry shows the natural chain unless it says otherwise.
UniProt O75064: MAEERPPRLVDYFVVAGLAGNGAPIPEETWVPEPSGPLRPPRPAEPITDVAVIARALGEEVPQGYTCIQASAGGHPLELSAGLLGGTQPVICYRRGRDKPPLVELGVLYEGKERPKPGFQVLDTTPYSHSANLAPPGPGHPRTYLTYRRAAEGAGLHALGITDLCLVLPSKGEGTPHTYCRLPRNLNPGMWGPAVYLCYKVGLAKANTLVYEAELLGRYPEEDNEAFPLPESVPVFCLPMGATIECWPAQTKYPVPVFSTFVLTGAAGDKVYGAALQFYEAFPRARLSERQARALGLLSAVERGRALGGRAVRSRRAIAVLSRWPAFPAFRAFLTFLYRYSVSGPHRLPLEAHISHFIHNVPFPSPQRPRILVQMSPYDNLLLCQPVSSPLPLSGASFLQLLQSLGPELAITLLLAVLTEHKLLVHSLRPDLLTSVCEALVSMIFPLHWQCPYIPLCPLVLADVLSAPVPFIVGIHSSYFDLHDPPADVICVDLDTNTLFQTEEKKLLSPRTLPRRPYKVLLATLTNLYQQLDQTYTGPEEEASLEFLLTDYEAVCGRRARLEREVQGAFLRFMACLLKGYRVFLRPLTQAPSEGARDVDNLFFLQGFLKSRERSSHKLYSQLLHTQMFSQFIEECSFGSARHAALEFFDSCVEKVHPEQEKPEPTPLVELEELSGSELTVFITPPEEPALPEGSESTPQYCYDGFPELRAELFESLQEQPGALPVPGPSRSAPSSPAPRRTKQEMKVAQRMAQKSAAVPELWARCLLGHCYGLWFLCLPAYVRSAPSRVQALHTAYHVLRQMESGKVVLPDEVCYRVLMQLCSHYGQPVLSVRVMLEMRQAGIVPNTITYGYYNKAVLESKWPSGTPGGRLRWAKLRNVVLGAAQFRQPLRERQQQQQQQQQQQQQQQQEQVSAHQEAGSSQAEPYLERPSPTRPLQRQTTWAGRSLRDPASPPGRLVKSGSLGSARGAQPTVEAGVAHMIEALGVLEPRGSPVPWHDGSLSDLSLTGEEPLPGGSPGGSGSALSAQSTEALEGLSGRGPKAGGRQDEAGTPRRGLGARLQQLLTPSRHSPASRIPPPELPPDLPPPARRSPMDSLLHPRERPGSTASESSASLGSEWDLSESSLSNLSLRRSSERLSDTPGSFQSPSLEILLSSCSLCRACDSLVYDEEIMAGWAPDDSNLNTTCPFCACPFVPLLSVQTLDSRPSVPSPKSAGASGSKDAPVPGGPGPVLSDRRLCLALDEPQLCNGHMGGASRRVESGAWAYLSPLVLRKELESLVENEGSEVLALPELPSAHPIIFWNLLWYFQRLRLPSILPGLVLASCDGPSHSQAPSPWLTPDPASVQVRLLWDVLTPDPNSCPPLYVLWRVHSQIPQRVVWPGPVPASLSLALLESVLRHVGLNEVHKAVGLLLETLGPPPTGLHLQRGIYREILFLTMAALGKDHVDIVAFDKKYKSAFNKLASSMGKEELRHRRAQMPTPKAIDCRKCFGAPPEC
UniProt Q16850: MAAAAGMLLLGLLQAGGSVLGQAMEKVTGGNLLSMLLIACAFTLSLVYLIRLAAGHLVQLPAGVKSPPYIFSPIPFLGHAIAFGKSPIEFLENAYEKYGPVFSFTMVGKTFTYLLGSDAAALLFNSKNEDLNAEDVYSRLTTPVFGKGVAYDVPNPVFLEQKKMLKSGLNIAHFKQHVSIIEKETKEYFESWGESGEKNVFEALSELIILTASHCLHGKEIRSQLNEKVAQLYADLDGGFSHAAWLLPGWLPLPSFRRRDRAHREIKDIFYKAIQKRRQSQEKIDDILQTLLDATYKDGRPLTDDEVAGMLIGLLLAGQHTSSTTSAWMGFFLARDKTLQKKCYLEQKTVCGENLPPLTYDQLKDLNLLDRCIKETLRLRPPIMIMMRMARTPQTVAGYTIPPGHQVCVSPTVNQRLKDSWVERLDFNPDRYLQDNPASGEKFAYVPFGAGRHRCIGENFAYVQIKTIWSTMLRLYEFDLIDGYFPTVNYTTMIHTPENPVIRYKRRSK
UniProt Q9H1C7: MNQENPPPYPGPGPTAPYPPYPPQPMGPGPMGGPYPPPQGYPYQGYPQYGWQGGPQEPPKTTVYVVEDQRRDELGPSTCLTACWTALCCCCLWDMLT
UniProt P17661, whole entry, looked up: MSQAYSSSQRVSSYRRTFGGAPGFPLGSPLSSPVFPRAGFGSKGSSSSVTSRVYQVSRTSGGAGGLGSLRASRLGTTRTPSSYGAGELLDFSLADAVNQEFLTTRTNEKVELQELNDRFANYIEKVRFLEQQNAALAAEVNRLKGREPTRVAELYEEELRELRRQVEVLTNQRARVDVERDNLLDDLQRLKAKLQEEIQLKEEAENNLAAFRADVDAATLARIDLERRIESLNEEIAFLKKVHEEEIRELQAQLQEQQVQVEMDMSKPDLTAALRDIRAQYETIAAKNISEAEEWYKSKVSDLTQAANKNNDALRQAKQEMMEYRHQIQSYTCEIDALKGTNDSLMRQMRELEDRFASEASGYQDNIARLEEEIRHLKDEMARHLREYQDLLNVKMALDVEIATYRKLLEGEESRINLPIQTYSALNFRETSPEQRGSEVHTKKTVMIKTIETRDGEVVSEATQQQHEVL
UniProt O15121: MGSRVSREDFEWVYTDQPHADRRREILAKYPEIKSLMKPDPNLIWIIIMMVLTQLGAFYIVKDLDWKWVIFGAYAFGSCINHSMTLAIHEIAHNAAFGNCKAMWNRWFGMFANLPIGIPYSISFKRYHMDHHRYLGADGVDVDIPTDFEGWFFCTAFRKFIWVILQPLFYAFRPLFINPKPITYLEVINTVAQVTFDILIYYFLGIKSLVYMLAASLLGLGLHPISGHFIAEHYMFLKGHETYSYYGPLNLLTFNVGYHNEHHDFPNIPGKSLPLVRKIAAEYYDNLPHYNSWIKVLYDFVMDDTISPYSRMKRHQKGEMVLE
UniProt Q9H4E7, whole entry, looked up: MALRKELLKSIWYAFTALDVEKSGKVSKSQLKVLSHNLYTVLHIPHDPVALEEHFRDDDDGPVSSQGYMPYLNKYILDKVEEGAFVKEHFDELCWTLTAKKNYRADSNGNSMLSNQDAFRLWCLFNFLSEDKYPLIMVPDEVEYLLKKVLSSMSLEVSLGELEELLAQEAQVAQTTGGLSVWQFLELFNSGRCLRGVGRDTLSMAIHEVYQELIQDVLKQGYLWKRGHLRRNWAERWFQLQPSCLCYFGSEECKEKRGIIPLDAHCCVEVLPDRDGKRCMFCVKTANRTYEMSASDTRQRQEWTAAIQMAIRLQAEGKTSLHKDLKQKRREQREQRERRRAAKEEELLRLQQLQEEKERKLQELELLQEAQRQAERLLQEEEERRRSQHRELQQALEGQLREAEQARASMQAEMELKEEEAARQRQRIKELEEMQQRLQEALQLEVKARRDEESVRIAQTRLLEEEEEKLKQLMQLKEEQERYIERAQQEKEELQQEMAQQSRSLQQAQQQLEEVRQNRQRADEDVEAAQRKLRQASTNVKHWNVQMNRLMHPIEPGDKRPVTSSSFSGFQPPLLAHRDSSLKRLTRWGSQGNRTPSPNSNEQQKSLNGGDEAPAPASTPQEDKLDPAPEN
UniProt Q9NVP1: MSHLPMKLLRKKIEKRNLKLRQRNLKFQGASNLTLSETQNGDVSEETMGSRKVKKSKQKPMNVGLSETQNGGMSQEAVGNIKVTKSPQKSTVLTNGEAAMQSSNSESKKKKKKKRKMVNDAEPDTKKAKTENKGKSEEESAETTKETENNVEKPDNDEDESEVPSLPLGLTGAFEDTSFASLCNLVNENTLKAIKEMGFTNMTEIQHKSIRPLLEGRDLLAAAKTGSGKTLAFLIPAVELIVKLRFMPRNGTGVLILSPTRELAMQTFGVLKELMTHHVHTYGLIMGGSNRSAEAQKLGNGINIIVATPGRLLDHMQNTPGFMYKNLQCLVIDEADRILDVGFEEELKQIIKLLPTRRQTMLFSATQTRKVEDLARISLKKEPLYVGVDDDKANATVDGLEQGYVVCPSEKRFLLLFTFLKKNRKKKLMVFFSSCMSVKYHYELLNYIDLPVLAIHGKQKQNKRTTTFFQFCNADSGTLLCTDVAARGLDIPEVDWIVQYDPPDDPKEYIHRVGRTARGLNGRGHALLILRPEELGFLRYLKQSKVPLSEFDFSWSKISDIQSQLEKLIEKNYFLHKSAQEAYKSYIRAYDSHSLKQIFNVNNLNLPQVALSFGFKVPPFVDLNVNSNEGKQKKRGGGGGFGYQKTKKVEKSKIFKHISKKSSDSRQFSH
UniProt Q14203, whole entry, looked up: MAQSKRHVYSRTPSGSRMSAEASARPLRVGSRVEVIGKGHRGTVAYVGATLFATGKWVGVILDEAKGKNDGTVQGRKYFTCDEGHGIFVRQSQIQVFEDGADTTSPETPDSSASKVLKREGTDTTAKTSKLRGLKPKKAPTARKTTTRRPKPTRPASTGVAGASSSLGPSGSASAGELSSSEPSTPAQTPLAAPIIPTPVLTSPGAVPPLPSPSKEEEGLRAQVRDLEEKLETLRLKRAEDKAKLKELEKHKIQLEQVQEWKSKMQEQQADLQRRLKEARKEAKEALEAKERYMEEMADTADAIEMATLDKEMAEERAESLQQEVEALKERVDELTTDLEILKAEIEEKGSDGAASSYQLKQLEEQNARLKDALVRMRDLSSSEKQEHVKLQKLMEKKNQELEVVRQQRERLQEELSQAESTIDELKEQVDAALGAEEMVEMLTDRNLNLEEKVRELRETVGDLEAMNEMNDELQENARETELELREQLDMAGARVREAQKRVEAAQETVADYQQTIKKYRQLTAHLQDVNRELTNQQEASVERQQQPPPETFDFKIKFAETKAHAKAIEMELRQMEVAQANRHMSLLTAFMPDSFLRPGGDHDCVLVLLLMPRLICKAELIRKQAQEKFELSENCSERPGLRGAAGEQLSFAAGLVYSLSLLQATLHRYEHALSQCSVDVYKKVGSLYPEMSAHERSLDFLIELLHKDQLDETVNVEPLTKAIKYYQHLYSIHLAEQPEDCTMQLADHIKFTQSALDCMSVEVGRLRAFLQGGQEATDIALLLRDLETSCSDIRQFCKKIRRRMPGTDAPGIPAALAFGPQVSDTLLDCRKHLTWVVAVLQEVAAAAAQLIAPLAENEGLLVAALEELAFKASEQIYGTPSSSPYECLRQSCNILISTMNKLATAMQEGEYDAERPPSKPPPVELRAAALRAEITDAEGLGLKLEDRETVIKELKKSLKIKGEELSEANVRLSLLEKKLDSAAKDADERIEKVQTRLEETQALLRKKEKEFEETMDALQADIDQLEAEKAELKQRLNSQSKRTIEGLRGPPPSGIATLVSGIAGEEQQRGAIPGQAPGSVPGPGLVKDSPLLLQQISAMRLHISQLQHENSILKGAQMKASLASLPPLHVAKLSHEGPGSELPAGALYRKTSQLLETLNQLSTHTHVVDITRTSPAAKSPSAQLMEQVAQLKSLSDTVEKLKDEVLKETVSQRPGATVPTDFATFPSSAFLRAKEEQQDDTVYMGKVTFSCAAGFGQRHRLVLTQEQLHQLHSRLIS
UniProt Q9H0S4: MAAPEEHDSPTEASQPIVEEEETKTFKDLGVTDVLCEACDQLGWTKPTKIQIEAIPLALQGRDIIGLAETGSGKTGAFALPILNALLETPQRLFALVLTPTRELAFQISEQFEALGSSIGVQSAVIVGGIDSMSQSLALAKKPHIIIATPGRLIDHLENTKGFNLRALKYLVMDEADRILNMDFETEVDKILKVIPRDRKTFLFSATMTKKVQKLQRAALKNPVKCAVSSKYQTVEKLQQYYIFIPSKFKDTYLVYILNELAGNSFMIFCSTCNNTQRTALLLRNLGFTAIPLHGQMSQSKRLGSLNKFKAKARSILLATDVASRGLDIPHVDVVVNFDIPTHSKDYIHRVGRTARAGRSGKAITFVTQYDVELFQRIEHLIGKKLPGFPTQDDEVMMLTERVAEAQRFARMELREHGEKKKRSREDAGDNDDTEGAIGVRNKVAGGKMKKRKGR

Assays:
Assay in all cases: log2 fold change, soluble protein after heating vs DMSO (PISA); higher = thermal stabilisation; K562 lysate, 10 uM; active = over 0.2 and 3.5 SD of the protein, either way, in both replicates (recomputed)
[1] = compound: C1=CC=C(C=C1)[C@H](COC2=CC3=C(C=C2)NC(=O)N3)NC(=O)C4=CC=CN(C4=O)CC5=CC(=C(C=C5)F)F
Outline: (§1)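 To prepare the extract, K562 pellets were dounce-homogenised in PBS pH 7.4 with 1 mM MgCl2, giving crude material at 1 mg/mL protein. This was treated with 10 μM compound for 30 min, then heated in aliquots for 3 min over 48°C-58°C before pooling and addition of NP-40 to 0.5% at 4°C. Centrifugation at 21,000xg for 90 min left soluble protein in the supernatant, which TMTpro 16plex LC-MS/MS quantified with equalised channel sums. Results are log-two fold changes in thermal stability compared with solvent controls, from duplicates.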

[2] = compound: CC1=C(SC2=C1C(=N[C@H](C3=NN=C(N32)C)CC(=O)N)C4=CC=C(C=C4)Cl)C
Outline: as §1

[3] = compound: CC1=C2C(=CC=C1)N=C(N(C2=O)C3=CC=CC=C3C)CN4C=NC5=C(N=CN=C54)N
Outline: as §1

[4] = compound: Cc1sc2c(c1C)C(c1ccc(Cl)cc1)=N[C@@H](CC(=O)OC(C)(C)C)c1nnc(C)n1-2
Outline: as §1

[5] = compound: c1ccc([C@@H]2C[C@H]2NC2CCNCC2)cc1
Outline: as §1

Measured: log2 fold change

DENND4B (UniProt O75064)
inactive: [1] 0.026 | [2] -0.013 | [3] -0.008 | [4] 0.025 | [5] -0.048

CYP51A1 (UniProt Q16850)
inactive: [1] 0.028 | [2] -0.105 | [3] -0.058 | [4] -0.028 | [5] -0.007

CYSTM1 (UniProt Q9H1C7)
inactive: [1] 0.122 | [2] -0.041 | [3] 0.021 | [4] -0.038 | [5] -0.075

2 successive records from above, for reference:
CYP51A1 (UniProt Q16850)
inactive: [1] 0.028 | [2] -0.105 | [3] -0.058 | [4] -0.028 | [5] -0.007

CYSTM1 (UniProt Q9H1C7)
inactive: [1] 0.122 | [2] -0.041 | [3] 0.021 | [4] -0.038 | [5] -0.075

(list continues)

DES (UniProt P17661)
inactive: [1] 0 | [2] 0.05 | [3] 0.062 | [4] -0.219 | [5] -0.131

DEGS1 (UniProt O15121)
inactive: [1] 0.054 | [2] 0.017 | [3] 0.083 | [4] 0.054 | [5] 0.009

DEF6 (UniProt Q9H4E7)
inactive: [1] -0.061 | [2] -0.05 | [3] -0.027 | [4] 0.036 | [5] -0.037

DDX18 (UniProt Q9NVP1)
inactive: [1] 0.034 | [2] 0.005 | [3] -0.036 | [4] -0.005 | [5] 0.002

DCTN1 (UniProt Q14203)
inactive: [1] -0.018 | [2] -0.017 | [3] -0.009 | [4] 0 | [5] 0.034

DDX47 (UniProt Q9H0S4)
inactive: [1] 0.039 | [2] 0.022 | [3] -0.015 | [4] -0.024 | [5] 0.034
